For at least one entry, the source does not settle the construct or the ends of the probe. For some assays here: Protein sequences can lack the tags named with them.
Tests used:
Experiment in all cases: EMSA
[1] = system: MBP-SlWRKY30 + MBP-SlWRKY81; conditions: recombinant protein
[2] = molecular target: T1, MBP-SlWRKY81 (Solanum lycopersicum) (UniProt A0A3Q7I1L3); conditions: recombinant protein; protein details: N-terminal MBP (pMAL-c4X)
T1 sequence (looked up, limits assumed): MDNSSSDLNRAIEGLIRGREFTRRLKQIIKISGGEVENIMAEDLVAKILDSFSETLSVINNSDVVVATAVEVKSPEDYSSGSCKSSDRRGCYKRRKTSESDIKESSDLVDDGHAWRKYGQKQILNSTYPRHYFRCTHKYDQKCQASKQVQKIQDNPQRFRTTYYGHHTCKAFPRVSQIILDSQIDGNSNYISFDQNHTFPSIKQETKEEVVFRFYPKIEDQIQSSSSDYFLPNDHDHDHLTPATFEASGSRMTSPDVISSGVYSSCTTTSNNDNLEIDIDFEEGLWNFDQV

[3] = system: MBP-SlWRKY30 (Solanum lycopersicum); conditions: recombinant protein; protein details: N-terminal MBP (pMAL-c4X)

ACTGACGACTGAAACATATTAAAGAAACAGATCCAACGCAGTCAACTGAC (double strand) [SlPR-STH2a probe 1 WT]
binding result [1]: binds | binding result [2]: binds | binding result [3]: binds

ATCGATTGACATCTGTTCTCCCATATTTAATTCGTCATTGAGGTTTGCTT (double strand) [SlPR-STH2a probe 2 WT]
binding result [2]: binds | binding result [3]: binds

CATGTTTAGTTGACTTATATGTTTTCTAAATAGATTTATT (double strand) [SlPR-STH2d probe 2 WT]
binding result [2]: binds | binding result [3]: binds

CTAGTTTCATTCTCAAACTATTGACAGCCCTAAAAACACCCTTTTACT (double strand) [SlPR-STH2b probe 1 WT]
binding result [1]: binds | binding result [2]: binds | binding result [3]: binds

GATCGAATTATAATTGGTCACGTCATCATTTTTCAATAAA (double strand) [SlPR-STH2c probe 2 WT]
binding result [2]: binds | binding result [3]: binds

TAGTTTCGACTCTAACTATGGATCCTGACACGGTTTAACTTATTC (double strand) [SlPR-STH2d probe 1 WT]
binding result [1]: binds | binding result [2]: binds | binding result [3]: binds

TTTACATGATATAGTTAGACTTGACATAAAATTTAAGAAA (double strand) [SlPR-STH2b probe 2 WT]
binding result [2]: binds | binding result [3]: binds

TTTGATAACGTGACCGAGTTACAATTGGCCACGTGTCAAAAA (double strand) [SlPR-STH2c probe 1 WT]
binding result [1]: binds | binding result [2]: binds | binding result [3]: binds

From publication PMC10189802
